# These are yes or no findings as the source states them, for the method shown. Binding seen in cells or lysates may run through a third protein. Some results given as binding are weak or reduced against the parent protein; the word gives no strength.
# Amino acid sequences for entries named in this document (tags omitted).
# UniProt Q9ULZ3: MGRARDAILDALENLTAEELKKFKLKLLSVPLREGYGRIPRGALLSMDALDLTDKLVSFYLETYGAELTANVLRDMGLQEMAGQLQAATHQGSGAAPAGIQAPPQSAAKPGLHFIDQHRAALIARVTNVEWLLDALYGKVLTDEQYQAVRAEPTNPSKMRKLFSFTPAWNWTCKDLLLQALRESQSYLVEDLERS
# UniProt P29466: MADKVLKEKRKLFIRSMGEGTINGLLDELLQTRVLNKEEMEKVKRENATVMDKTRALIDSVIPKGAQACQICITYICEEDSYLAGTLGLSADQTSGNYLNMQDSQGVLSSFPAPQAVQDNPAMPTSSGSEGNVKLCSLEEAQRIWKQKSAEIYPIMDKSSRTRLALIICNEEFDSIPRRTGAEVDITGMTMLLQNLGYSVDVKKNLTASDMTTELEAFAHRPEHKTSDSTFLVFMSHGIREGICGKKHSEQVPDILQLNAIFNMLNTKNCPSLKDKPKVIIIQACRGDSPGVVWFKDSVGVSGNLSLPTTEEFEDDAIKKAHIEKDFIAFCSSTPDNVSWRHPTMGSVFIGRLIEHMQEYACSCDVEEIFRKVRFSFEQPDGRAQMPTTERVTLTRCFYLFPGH
# Target: ASC (apoptosis-associated speck-like protein containing a CARD), endogenous (human (endogenous in THP-1)) (UniProt Q9ULZ3)
# Assay: co-IP; immunoprecipitation with anti-ASC from lysates of LPS-primed, ATP-treated THP-1-derived macrophages (shRNA-Ctrl, shRNA-SHP2 or shRNA-ANT1), protein A/G-agarose, immunoblot
substance,measurement,value
"pro-caspase-1, endogenous (from UniProt P29466 1-404) (enzyme)",binding,binds
